{"source": "PubChem BioAssay AID540256", "about": "(National Center for Advancing Translational Sciences (NCATS), 2011)", "note": "Screen size: about 300,000 compounds; about 3,700 (1.2%) were called active. Inconclusive results, whose numbers are uncertain, are shown with a selection of clear calls. The call rests on the fitted dose curve; tested in HEK293 cells. A potency beside an inconclusive call is a rough fit, not a confirmed value. Where a SMILES comes first, the peptide text is derived from it. The star is where a group is joined. PhAc = O=C(Cc1ccccc1)*; OBn = c1ccc(CO*)cc1", "data": [{"assay": "qHTS for Inhibitors of binding or entry into cells for Lassa Virus; further: nearly all actives have a fitted effect of over 50% in size; further: potency means the concentration at half of the fitted maximal effect; on activity change, negative = inhibition: on the % scale 0 is the no-effect control and ±100 the full control effect", "conditions": "Lassa virus pseudotype entry inhibition, cell reporter; activity change, negative = inhibition: at 37.9 µM (top of the series) unless noted", "values": [{"smiles": "COc1ccc2c(c1)C(=O)c1ccccc1CO2", "activity change, negative = inhibition": "inactive: -4.69%"}, {"smiles": "Cc1ccccc1N1CCN(C(=O)CCN2C(=O)c3ccccc3C2=O)CC1", "Potency": "inconclusive: 0.092 µM [inhibitor, full curve, poor fit]"}, {"smiles": "CC1CCN(c2ccc3nnc(CCC(=O)Nc4cccc(F)c4)n3n2)CC1", "Potency": "inconclusive: 17.8 µM [inhibitor, single point]"}, {"smiles": "Cc1cc(C)n(CCCC(=O)O)n1", "Potency": "inconclusive: 31.6 µM [activator, single point]"}, {"smiles": "c1ccc(Cn2nnnc2C(c2ccccc2)N2CCN(c3nc4ccccc4s3)CC2)cc1", "note": "(stereo unspecified)", "activity change, negative = inhibition": "inactive: -6.96%"}, {"smiles": "COc1ccccc1CC(=O)NC(=O)c1ccccc1O", "Potency": "inconclusive: 0.708 µM [activator, partial curve, poor fit]"}, {"smiles": "CCOC(=O)c1sc(N(Cc2ccccc2)C(=O)CSc2ncn[nH]2)nc1C", "Potency": "inconclusive: 35.5 µM [inhibitor, single point]"}, {"smiles": "O=C(/C=C/c1ccco1)Nc1sc2c(c1C(=O)O)CCC2", "Potency": "inconclusive: 29.1 µM [inhibitor, single point]"}, {"smiles": "Cc1ccc(C)n1-c1ccc(C(=O)Nc2ccccc2F)cc1", "Potency": "inconclusive: 22.4 µM [inhibitor, single point]"}, {"smiles": "C=CCn1c(SCc2nc3sc4c(c3c(=O)[nH]2)CCCC4)nc2ccccc2c1=O", "activity change, negative = inhibition": "inactive: -2.06%"}, {"smiles": "c1cc(-c2cccs2)nc(-c2cccs2)c1", "Potency": "inconclusive: 20 µM [activator, single point]"}, {"smiles": "Cc1ccc(C)c(S(=O)(=O)N2CCN(C(=O)Cc3sc(C)nc3-c3ccc(F)cc3)CC2)c1", "Potency": "inconclusive: 11.2 µM [inhibitor, partial curve]"}, {"smiles": "O=c1oc2ccccc2c(O)c1C=NCc1ccccn1", "Potency": "inconclusive: 35.5 µM [inhibitor, single point]"}, {"smiles": "O=C1CCC([N+](=O)[O-])C(c2cc(Br)ccc2F)N1", "note": "(stereo unspecified)", "Potency": "inconclusive: 0.891 µM [inhibitor, single point]"}, {"smiles": "Cc1cc(C)c(C(=O)/C=C/c2cccc3ccccc23)c(=O)[nH]1", "Potency": "active: 6.31 µM"}, {"smiles": "Cc1ccc(C)c(NC(=O)CSc2nnc(NC(=O)C3CC3)s2)c1", "activity change, negative = inhibition": "inactive: -4.65%"}, {"smiles": "CCOC(=O)N1CCC(NC(=O)c2cn(-c3ccc(OC)cc3)c(=O)c3ccccc23)CC1", "Potency": "inconclusive: 32.6 µM [activator, partial curve, poor fit]"}, {"smiles": "O=C(NCC1CCCO1)c1ccc2c(=O)n(Cc3ccc(Cl)cc3)c(=S)[nH]c2c1", "note": "(stereo unspecified)", "Potency": "inconclusive: 35.5 µM [activator, single point]"}, {"smiles": "COCCN=c1scc(-c2cc(OC)c(OC)c(OC)c2)n1/N=C/c1c(C)[nH]c2ccccc12", "Potency": "inconclusive: 28.2 µM [inhibitor, single point]"}, {"smiles": "CCCSc1nc(-c2ccccc2)cc(C(F)(F)F)c1C#N", "activity change, negative = inhibition": "inactive: 6.49%"}, {"smiles": "CC(C)Cc1ccc(/C=C/C(=O)N2CCCCC2)cc1", "Potency": "inconclusive: 12.6 µM [inhibitor, single point]"}, {"smiles": "C=CCNC(=O)/C(=C\\c1ccc2c(c1)OCO2)NC(=O)c1ccc(Br)cc1", "Potency": "inconclusive: 35.5 µM [inhibitor, partial curve, poor fit]"}, {"smiles": "O=C1CC(c2ccccc2)=Nc2ccccc2N1", "activity change, negative = inhibition": "inactive: 5.09%"}, {"smiles": "Cc1ccc(CN2CCN(/N=C/c3ccc(N(C)C)cc3)CC2)cc1", "activity change, negative = inhibition": "inactive: 1.48% [at 46.1 µM]"}, {"smiles": "COc1cc(NC(=O)CSc2nc3ccccc3c(=O)n2C)ccc1NC(=O)c1ccco1", "Potency": "inconclusive: 29.1 µM [inhibitor, single point]"}, {"smiles": "CCOC(=O)c1c(CNc2ccncc2)n(C)c2cc(Br)c(O)cc12", "activity change, negative = inhibition": "inactive: -3.77%"}, {"smiles": "COc1ccc(NS(=O)(=O)c2cc(NC(=O)CCNC(C)=O)ccc2N2CCOCC2)cc1", "activity change, negative = inhibition": "inactive: -1.41%"}, {"smiles": "Nc1ccc(-c2nc3c(Cl)cc(N)cc3[nH]2)cc1", "Potency": "active: 11.2 µM"}, {"smiles": "CN(C)CCCN(C(=O)c1ccc(S(=O)(=O)N(C)C2CCCCC2)cc1)c1nc2ccc(Br)cc2s1", "Potency": "inconclusive: 35.5 µM [inhibitor, single point]"}, {"smiles": "COC(=O)c1ccc(NC(=O)Nc2cccc(F)c2)cc1", "Potency": "inconclusive: 22.4 µM [inhibitor, single point]"}, {"smiles": "CCOC(=O)c1ccc(NC(=O)CC2C(=O)N(c3cccc(C)c3)C(=O)N2CCOC)cc1", "note": "(stereo unspecified)", "activity change, negative = inhibition": "inactive: 7.94% [at 46.1 µM]"}, {"smiles": "CC(C)c1ccc(NC(=O)c2cnc3sc(N4CCCC4)nn3c2=O)cc1", "activity change, negative = inhibition": "inactive: -24.2% [at 46.1 µM]"}, {"smiles": "Cc1ccccc1Nc1c(C)c(C)nc2ncnn12", "activity change, negative = inhibition": "inactive: -26.7%"}, {"smiles": "COc1ccc(CCn2c(O)c(C=Nc3ccc(NC(C)=O)cc3)c(=O)[nH]c2=O)cc1OC", "activity change, negative = inhibition": "inactive: -18.2% [at 46.1 µM]"}, {"smiles": "CC(C)C[C@H](NC(=O)NCc1ccccc1Cl)C(=O)O", "activity change, negative = inhibition": "inactive: -1.74%"}, {"smiles": "Cc1ccc(C(=O)NNC(=O)c2cc3cc4ccccc4nc3s2)cc1", "Potency": "inconclusive: 14.1 µM [inhibitor, single point]"}, {"smiles": "O=C(NCc1cccnc1)C1COc2ccccc2O1", "note": "(stereo unspecified)", "Potency": "inconclusive: 25.1 µM [activator, partial curve, poor fit]"}, {"smiles": "O=C1NC(=O)c2cc(NC(=O)C3CCCO3)ccc21", "note": "(stereo unspecified)", "Potency": "inconclusive: 4.61 µM [activator, full curve, poor fit]"}, {"smiles": "Cc1ccccc1-c1nc(CS(=O)CC(=O)NCCN2CCN(Cc3ccccc3)CC2)c(C)o1", "note": "(stereo unspecified)", "activity change, negative = inhibition": "inactive: 3.96%"}, {"smiles": "Cc1c(Cc2ccccc2)c(=O)oc2cc(O)cc(O)c12", "activity change, negative = inhibition": "inactive: -3.68% [at 46.1 µM]"}, {"smiles": "Clc1ccccc1/C=N/c1cc(-c2ccccc2)nn1-c1ccccc1", "activity change, negative = inhibition": "inactive: -0.669%"}, {"smiles": "CN(C(=O)/C=C/c1ccc(F)cc1)C1CCCCC1", "Potency": "inconclusive: 3.55 µM [activator, single point]"}, {"smiles": "CN1CCc2c(sc(NC(=O)C3CCN(S(=O)(=O)c4cccs4)CC3)c2C(N)=O)C1", "Potency": "inconclusive: 11.2 µM [activator, single point]"}, {"smiles": "COc1ccc(C2CC3(CC(C)(C)NC(SC)=N3)Oc3cc(O)cc(C)c32)cc1", "note": "(stereo unspecified)", "Potency": "active: 18.4 µM"}, {"smiles": "CCOc1ncccc1C(=O)OCC(=O)c1ccc(Br)s1", "Potency": "inconclusive: 1.12 µM [activator, full curve]"}, {"smiles": "O=C(O)c1cccc(N2C(=O)C3CC=CCC3C2=O)c1", "note": "(stereo unspecified)", "activity change, negative = inhibition": "inactive: 13.1%"}, {"smiles": "Cc1ccc(N2CC(C(=O)Nc3ccc(S(=O)(=O)Nc4nccc(C)n4)cc3)CC2=O)cc1", "note": "(stereo unspecified)", "Potency": "inconclusive: 0.562 µM [activator, full curve, poor fit]"}, {"smiles": "CCN1CCN(S(=O)(=O)c2ccc(Cl)c(C(=O)Nc3cc(Cl)ccc3N3CCOCC3)c2)CC1", "Potency": "inconclusive: 10 µM [inhibitor, partial curve, poor fit]"}, {"smiles": "Cc1cc(OCC(=O)N(Cc2ccc(N(C)C)cc2)C2CCS(=O)(=O)C2)cc(C)c1Cl", "note": "(stereo unspecified)", "activity change, negative = inhibition": "inactive: 0.626% [at 46.1 µM]"}, {"smiles": "O=C(Oc1ccc2c(c1)OCO2)c1ccc(F)cc1Cl", "Potency": "inconclusive: 20.6 µM [activator, partial curve, poor fit]"}, {"smiles": "NC(=O)NC(Cc1ccccc1)C(=O)NNC(=O)COc1ccccc1Cl", "note": "(stereo unspecified)", "activity change, negative = inhibition": "inactive: 16.7% [at 46.1 µM]"}, {"smiles": "O=C(Cn1c(=O)sc2ccccc21)Nc1ccc2c(c1)OCCO2", "Potency": "inconclusive: 29.1 µM [activator, single point]"}, {"smiles": "CN(Cc1ccccc1)C(=O)COC(=O)C1CCN(S(=O)(=O)c2ccc(Cl)c(C(F)(F)F)c2)CC1", "activity change, negative = inhibition": "inactive: 5.98%"}, {"smiles": "CC(C)Oc1ccc(CN2CCCC(CO)(Cc3ccc(F)cc3)C2)cc1", "note": "(stereo unspecified)", "Potency": "inconclusive: 35.5 µM [inhibitor, single point]"}, {"smiles": "O=C(c1ccc(S(=O)(=O)Cc2ccccc2F)c([N+](=O)[O-])c1)N1CCCC1", "activity change, negative = inhibition": "inactive: -1.71%"}, {"smiles": "Cc1ccc(C(=O)CSc2cc(C)nc(SCC(=O)c3ccccc3)n2)cc1", "Potency": "inconclusive: 20 µM [inhibitor, single point]"}, {"smiles": "Cc1cc(C(=O)CSc2nc(N)cc(N)n2)c(C)n1-c1cccc(C(F)(F)F)c1", "activity change, negative = inhibition": "inactive: -8.39%"}, {"smiles": "COc1cc2nc(/C=C/c3ccc(N(C)C)cc3)sc2cc1SC", "Potency": "inconclusive: 3.16 µM [inhibitor, full curve, poor fit]"}, {"smiles": "COc1cc(OC)c(NC(=O)Cc2ccc(-n3c(C)nc4cccnc43)cc2)cc1Cl", "activity change, negative = inhibition": "inconclusive: 1.32% [activator] [at 46.1 µM]"}, {"smiles": "CCCCCC(=O)NNC(=S)NC(=O)c1ccc([N+](=O)[O-])cc1", "Potency": "inconclusive: 12.6 µM [activator, partial curve, poor fit]"}, {"smiles": "Nc1nc(CN2CCN(c3cccc(Cl)c3)CC2)nc(N2CCCc3ccccc32)n1", "activity change, negative = inhibition": "inactive: -6.33%"}, {"smiles": "CC(c1n[nH]c(=S)n1-c1ccc(F)cc1)N1CCCCC1", "note": "(stereo unspecified)", "Potency": "inconclusive: 1.12 µM [inhibitor, single point]"}, {"smiles": "CCOc1ccc(S(=O)(=O)N(CC)CC)cc1NC(=O)CSCc1c(C)noc1C", "Potency": "inconclusive: 14.1 µM [inhibitor, single point]"}, {"smiles": "O=C(NCCS(=O)(=O)N1CCCCCC1)c1ccccc1", "activity change, negative = inhibition": "inactive: 16.8% [at 46.1 µM]"}, {"smiles": "CCCCN(C)CCCNC(=O)c1cc(-c2cccnc2)nc2ccccc12", "Potency": "inconclusive: 14.1 µM [activator, single point]"}, {"smiles": "COc1ccc(-c2csc3ncnc(N4CCN(c5ccccc5)CC4)c23)cc1", "Potency": "inconclusive: 22.4 µM [inhibitor, single point]"}, {"smiles": "O=C(CNC(=O)Cc1ccccc1)NCC(=O)OCc1ccccc1", "note": "(PhAc-Gly-Gly-OBn)", "Potency": "inconclusive: 15.8 µM [activator, single point]"}, {"smiles": "Cc1nnnn1/C(=C\\c1ccccc1)C(=O)OCC(=O)N(C)C1CCS(=O)(=O)C1", "note": "(stereo unspecified)", "activity change, negative = inhibition": "inactive: -1.04%"}, {"smiles": "Cc1ccc2nc(CN3CCN(C(=O)Nc4ccc(C)c(F)c4)CC3)oc2c1", "activity change, negative = inhibition": "inactive: -0.523% [at 46.1 µM]"}, {"smiles": "CCOc1ccccc1N=CC1=C(O)CC(c2ccccc2)CC1=O", "note": "(stereo unspecified)", "Potency": "inconclusive: 8.91 µM [inhibitor, partial curve]"}, {"smiles": "COc1ccc(C2C(=O)N(C3CCCCCC3)CC(=O)N2CCc2ccc(OC)c(OC)c2)cc1", "note": "(stereo unspecified)", "Potency": "inconclusive: 12.6 µM [inhibitor, partial curve, poor fit]"}]}]}
